PubChem BioAssay AID1259308 | NCATS, 2017
This is an unselected part of about 59,000 reagents tested. About 1,510 of them (2.6%) were called active. 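Calls use total luciferase alone and ignore viability, so some active siRNAs may act by altering cell number.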 Entries without a mark were called inactive. Reagents against one gene are numbered here.

- Test: 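Candidate targets for better recombinant protein yield in mammalian cells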 (primary screen)
- Cell system: human HEK293 embryonic kidney cells stably expressing firefly luciferase (HEK-CMV-Luc2-Hygro)
- Reagent: single siRNA against human genes, 0.8 pmol siRNA per well
- Time to read-out: 72 h
- Read-out: 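Luciferase light (ONE-Glo) measured on one replicate plate set and viability (CellTiter-Glo) on the other, scaled to a negative control siRNA, with robust z-scores and luciferase per cell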
- Reading the numbers: total luciferase, z-score and total luciferase, % of control: higher = more reporter protein produced; luciferase per cell, z-score: higher = more reporter output per viable cell; viable cells, % of control: higher = more viable cells
- Rule for the call: 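Active when the median/MAD z-score for overall luciferase is greater than 3; a gene was taken forward for validation with new siRNAs if at least two of its three siRNAs passed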
- Meaning of the calls: active = raised luciferase; inactive = no rise

gene	siRNA no.	total luciferase, z-score	total luciferase, % of control	luciferase per cell, z-score	viable cells, % of control
TLN2 (talin 2)	1	-0.425	73.4	-1	107
TLN2 (talin 2)	2	0.0165	82.2	-0.282	99
TLN2 (talin 2)	3	-0.22	77.5	-1.03	114
E2F2 (E2F transcription factor 2)	1	-0.0407	81.1	-0.477	103
E2F2 (E2F transcription factor 2)	2	0.921	100	2.13	63.9
E2F2 (E2F transcription factor 2)	3	-0.385	74.2	-0.148	86.2
TBL1X (transducin beta like 1 X-linked)	1	0.345	88.7	0.776	80.8
TBL1X (transducin beta like 1 X-linked)	2	-0.996	62.1	-0.332	75.7
TBL1X (transducin beta like 1 X-linked)	3	-0.171	78.5	-0.352	96.2
PFN1 (profilin 1)	1	-1.34	55.3	-1.04	81.4
PFN1 (profilin 1)	2	0.729	96.4	1.37	75.1
PFN1 (profilin 1)	3	-0.417	73.6	0.703	68.3
CCL28 (C-C motif chemokine ligand 28)	1	1.03	102	0.986	88.3
CCL28 (C-C motif chemokine ligand 28)	2	-0.962	62.7	0.13	67.8
CCL28 (C-C motif chemokine ligand 28)	3	-0.13	79.3	-0.581	103
BMP8B (bone morphogenetic protein 8b)	1	3.09 (active)	143	2.32	86.9
BMP8B (bone morphogenetic protein 8b)	2	-0.807	65.8	-0.835	91.6
BMP8B (bone morphogenetic protein 8b)	3	-0.701	67.9	0.1	73.9
MSRA (methionine sulfoxide reductase A)	1	-0.106	79.8	-0.31	96.7
MSRA (methionine sulfoxide reductase A)	2	0.181	85.5	-0.557	111
MSRA (methionine sulfoxide reductase A)	3	0.513	92.1	2.05	60
RPP25 (ribonuclease P/MRP subunit p25)	1	0.011	82.1	0.0998	89.4
RPP25 (ribonuclease P/MRP subunit p25)	2	1.94	121	1.18	98.8
RPP25 (ribonuclease P/MRP subunit p25)	3	-0.586	70.2	-0.744	95.5
HCFC1 (host cell factor C1)	1	-0.638	69.2	0.991	59.6
HCFC1 (host cell factor C1)	2	-0.253	76.9	0.124	83.1
HCFC1 (host cell factor C1)	3	0.824	98.3	1.81	68.2
ZNF439 (zinc finger protein 439)	1	0.79	97.6	0.578	93.7
ZNF439 (zinc finger protein 439)	2	0.305	87.9	-0.0637	99.9
ZNF439 (zinc finger protein 439)	3	0.262	87.1	-0.787	120
CCDC93 (CCC complex scaffolding subunit CCDC93)	1	-0.0676	80.5	0.161	86.3
CCDC93 (CCC complex scaffolding subunit CCDC93)	2	0.514	92.1	0.62	87.4
CCDC93 (CCC complex scaffolding subunit CCDC93)	3	0.59	93.6	0.199	99.3
SPATS2 (spermatogenesis associated serine rich 2)	1	0.53	92.4	0.556	89.2
SPATS2 (spermatogenesis associated serine rich 2)	2	0.449	90.8	-0.0211	102
SPATS2 (spermatogenesis associated serine rich 2)	3	0.874	99.3	0.719	91.8
AMPH (amphiphysin)	1	-0.65	69	-0.821	95.7
AMPH (amphiphysin)	2	0.496	91.8	0.457	90.9
AMPH (amphiphysin)	3	-0.673	68.5	-0.728	92.7
SNX25 (sorting nexin 25)	1	-0.785	66.3	-0.752	90.3
SNX25 (sorting nexin 25)	2	1.48	111	1.2	90.5
SNX25 (sorting nexin 25)	3	-1.35	55.1	-1.2	84.4
APPL2	1	-0.0352	81.2	-0.667	108
APPL2	2	-1.33	55.5	-0.589	72.4
APPL2	3	-0.927	63.5	-0.582	82.7
ANKRD62 (ankyrin repeat domain 62)	1	-1.04	61.1	-0.842	85.3
ANKRD62 (ankyrin repeat domain 62)	2	0.511	92	-0.0239	104
ANKRD62 (ankyrin repeat domain 62)	3	-0.591	70.1	-1.08	104
PGD (phosphogluconate dehydrogenase)	1	-0.686	68.2	-0.504	87.1
PGD (phosphogluconate dehydrogenase)	2	-1.05	61.1	-1.32	96.7
PGD (phosphogluconate dehydrogenase)	3	-0.612	69.7	-0.35	85.4
EPS8L3 (EPS8 signaling adaptor L3)	1	0.443	90.7	-0.31	110
EPS8L3 (EPS8 signaling adaptor L3)	2	-0.134	79.2	-0.064	90
EPS8L3 (EPS8 signaling adaptor L3)	3	-0.153	78.8	0.73	72.7
APCS (amyloid P component, serum)	1	0.0273	82.4	0.125	89.1
APCS (amyloid P component, serum)	2	1.45	111	1	95.1
APCS (amyloid P component, serum)	3	-0.806	65.9	0.118	71.3
